No constants are given. Whether binding was seen depends on the method and setting. Some results given as binding are weak or reduced against the parent protein; the word gives no strength.
Molecular target: ALK1-Fc (ALK1 extracellular domain-Fc fusion protein) (UniProt P37023)
Experiment: SPR; Biacore T100; ALK1-Fc (800 RU) or ALK1 monomer (270 RU) amine-coupled to a CM5 chip; ligands injected at 30 μl min^-1 in 0.01 M HEPES pH 7.4, 0.5 M NaCl, 3 mM EDTA, 0.5 mg ml^-1 BSA, 0.01% P20, 25 °C; 1:1 model with mass transport limitations; KD = kd/ka; both purified

The chains behind the UniProt entries cited, without tags or fusion partners. Residues count along the entry.
UniProt P37023, residues 22-118: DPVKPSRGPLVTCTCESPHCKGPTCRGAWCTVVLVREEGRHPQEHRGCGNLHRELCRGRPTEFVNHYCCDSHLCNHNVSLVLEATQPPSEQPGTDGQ

B1: pro-BMP9 (prodomain-bound BMP9) (complex, UniProt Q9UK05 23-319; Q9UK05 320-429)
chain 1: KPLQSWGRGSAGGNAHSPLGVPGGGLPEHTFNLKMFLENVKVDFLRSLNLSGVPSQDKTRVEPPQYMIDLYNRYTSDKSTTPASNIVRSFSMEDAISITATEDFPFQKHILLFNISIPRHEQITRAELRLYVSCQNHVDPSHDLKGSVVIYDVLDGTDAWDSATETKTFLVSQDIQDEGWETLEVSSAVKRWVRSDSTKSKNKLEVTVESHRKGCDTLDISVPPGSRNLPFFVVFSNDHSSGTKETRLELREMISHEQESVLKKLSKDGSTEAGESSHEEDTDGHVAAGSTLARRKR
chain 2: SAGAGSHCQKTSLRVNFEDIGWDSWIIAPKEYEAYECKGGCFFPLADDVTPTKHAIVQTLVHLKFPTKVGKACCVPTKLSPISVLYKDDMGVPTLKYHYEGMSVAECGCR
Question: With B1 as the binder, how does the binding read?
Answer: binds

Source: paper PMC7113306
